Measured data: PubChem BioAssay AID652259 (Drosophila RNAi Screening Center, 2013)

Test: 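Knock-downs that push a Wingless-driven reporter up or down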 (primary screen)
Cell system: Drosophila clone 8 imaginal disc epithelial cells
Reagent: long dsRNA against Drosophila genes
Conditions: pathway stimulated by co-transfected Wingless expression plasmid
Measured: 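Firefly luciferase from a tcf-site Wingless reporter, measured alongside co-transfected Renilla luciferase that tracks transfection; pathway stimulated by a Wingless plasmid; the firefly-to-Renilla ratio is not deposited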
Scale: firefly reporter light: higher = more Wg reporter light, before normalisation; Renilla control light: higher = more transfected or surviving cells
Active means: 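a knock-down is a candidate when at least two out of four statistical tests show it departing from its plate mean; one test alone signals a weak candidate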
Calls: active = candidate regulator (raises or lowers reporter); inactive = not a candidate
In all, the deposit lists about 22,000 reagents; below is an unselected part of those with a known target gene and a result. In the full data, 233 (1.1%) are marked active. 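Light values are raw, unnormalised plate reads; the ratio scores behind the reporter calls were not deposited.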 Entries without a mark were called inactive. Reagents against one gene are numbered here. Names joined by + are all predicted targets of the reagent. Reagent sequences are not shown. Not given: the amount of reagent, the time to read-out, the dose of the treatment.

no.	Gene	dsRNA no.	firefly reporter light, replicate 1	firefly reporter light, replicate 2	Renilla control light, replicate 1	Renilla control light, replicate 2
1	sprt (GeneID 246397)	1	14437		3834	
2	Tes (GeneID 36965)	1	5485		2420	
3	CG2931 (GeneID 40673)	1	13008		3936	
4	CG18542 + CG32939	1	6064		2217	
5	CG16926 (GeneID 50205)	1	14748		4145	
6	PIG-N (GeneID 36049)	1	2328	4437	1139	2228
7	CG9449 (GeneID 40117)	1	11352		2674	
8	Spn42Dc (GeneID 35600)	1	1827	4839	72	2400
9	Mctp (GeneID 37165)	1	8117		3032	
10	Mctp (GeneID 37165)	2	9.59e5	8.65e5	5.15e5	232
11	HDAC3 (GeneID 44446)	1	3032		1683	
12	subdued (GeneID 42340)	1	1569	4493	859	1585
13	beat-Vb (GeneID 41583)	1	3945		485	
14	beat-Vb (GeneID 41583)	2	3156		1349	
15	beat-Vb (GeneID 41583)	3	18121		6056	
16	Gnf1 (GeneID 40607)	1	16720		4632	
17	nyo (GeneID 43716)	1	22810		13648	
18	nyo (GeneID 43716)	2	22247		16228	
19	Tpi (GeneID 43582)	1	1904	3755	1063	1520
20	CG7800 (GeneID 40963)	1	18992		4624	
21	sut1 (GeneID 35774)	1	6912		2235	
22	CG8547 (GeneID 36586)	1	16692		3912	
23	CG32532 (GeneID 32943)	1	19049		11475	
24	CG32532 (GeneID 32943)	2	15755		10195	
25	CG32532 (GeneID 32943)	3	20616		12485	
26	CG32532 (GeneID 32943)	4	3.86e5	4.49e5	1.76e5	1.50e5
27	CG4511 (GeneID 41305)	1	15180		4633	
28	CG42284 (GeneID 37621)	1	6.00e5	6.05e5	2.19e5	2.13e5
29	CG42284 (GeneID 37621)	2	5.18e5	5.28e5	1.54e5	1.73e5

Sorted by “firefly reporter light, replicate 1” (descending): 3 of the entries above
Gene	dsRNA no.	firefly reporter light, replicate 1	firefly reporter light, replicate 2	Renilla control light, replicate 1	Renilla control light, replicate 2
CG16926 (GeneID 50205)	1	14748		4145	
CG9449 (GeneID 40117)	1	11352		2674	
PIG-N (GeneID 36049)	1	2328	4437	1139	2228
